Source: PubChem BioAssay AID1159506 (NCATS, 2015).

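Genome-wide siRNA knockdown in TC32 Ewing sarcoma cells, comparing luciferase light from an NR0B1-promoter reporter with a CMV-promoter reporter 48 hours after transfection. Each siRNA was applied at 20 nM. A z-score of the log NR0B1-over-CMV signal, less the median of siRNAs with the same seed; more negative means a stronger specific loss of the NR0B1 reporter.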

The strongest results of the screen are mostly left out here. Sequences are the guide (antisense) strand, without overhang.

siRNA | target gene | seed-corrected z-score
AAUCUGAUCAAGAAUCACC | LIPM | -0.3629
AAGGUUCCAAGGAAACUGG | LOC646730 | 0.5985
UUGGUACCCAGGUAAAAUG | PARS2 | 0.1037
AAAGGACUAGGAAGUCUGG | REC8 | 1.345
ACAGGUUCCACAAAGGUGA | TMBIM1 | -1.45
UUUCUGACAUGAACGCAUC | SLC4A1AP | -0.1566
UGACUUUCCUGAUAGUUCC | AVL9 | 0.5162
UUUGCAUCUAAUCCAAUCC | DGKH | 0.09065
UUUCUAGCCGACAUUCUCC | EAF2 | -0.005638
UAAGAACUUUGCAACGAUC | CPSF6 | -0.07207
UAUUCAGCUAAGUCGUUCC | SDCCAG8 | -0.2807
UCUCUUAUAGCAGCUGCGG | SLC9C1 | 0.2634
UAAUGUCAGAUUUUCCAGC | TMEM233 | 0.5867
UUUUUAAUUGCACUAGAUC | ELF2P4 | 0.3057
UGAAAGACCAGGGUUCUUC | CARD14 | 0.6703
UUCCAUAAGAGAUAGAGAC | OR6C76 | 0.5411
UAUAUGAUAACUCAGAAAG | NOX3 | 0.3799
UAAACAACUGUUCUGAGGC | ATG12 | 0.2607
UAAGUUCACCCUCCUUAGC | FAM63A | -0.5679
UUAUCCACCACCGCACUUC | LMO7DN | 1.107
AAAGGAAGUACGGUUGUCG | C3orf84 | 1.418
CAAAGAACCUUCCUCUUGG | HSPA8P14 | -1.762
ACUUUGAACACGAACUCGG | APCDD1 | 0.935
UCCUGUAGCUGAUUUCUCC | SRD5A2 | 0.4686
ACAUCGAUCAGGACGGUGC | ANO7 | -0.01109
UUUGUAGUCUCGGAUAAAC | SUPT3H | -0.2387
UGCAGAAUCAAAGCUAUCA | GNG2 | 0.1298
AUAGUGUCAGAUUAUCACG | YWHAEP5 | 0.9854
UAAUAGCCUUCUAAGAACC | FIG4 | 0.827
UAUAUCAAGCAGGAAAAGC | MFSD2B | 0.3002
UGCUCUAUCAAAAGGAUAC | KIAA1033 | 0.8786
UAUCGAUAGCCUGUAGACC | ARL10 | -0.08321
AUACUGAAGGUAGUAAGCG | SOD2 | -0.04854
UUUUGUGCCUGGUGCAAGG | CLCNKA | -0.2927
UUAUUGUCAGGCAAUGACU | FAM229B | 0.4586
AAUAAGGUAUCAGUCUUGC | LINC00477 | -0.5505
UUUGUUAGAGGCUGUAUUG | RPL34 | -0.3159
AGAUCUAUCAUGACGGCCC | TUBA8 | -0.619
AUUGUUAACAUUGUGGUUC | CYBRD1 | 0.4188
AUACAGCUGAGUCUAGUGC | TYSND1 | 0.5146
UAAACCAUAGGCUGAUUUC | NME2 | -0.07888
AUUGUGAUAAAAACCAGGC | UPK1B | -0.1737
AUAGCAUUAAUCACAAAUG | TMEM231 | 1.011
UACACGAUGGAAUUUGCUG | PPIB | 0.5008
UCACCUUUAAGCACCACCU | RNF122 | -0.5847
UAAUGUAAGGGAGUACAGC | PSMD10 | -0.2963
UGUUUUAUUGGGUGUGCUC | ARMCX6 | -0.8818
UGAGGGUUAACUGAGGGCU | ZDHHC8P1 | -1.32
UACACGAUGACAAAGAUGA | SMO | 0.4799
UAGAGCAGAAGUUCCAGCC | RTP1 | -0.6523
UCUCUAAAAAGAGUCUUCC | SLC25A20 | 0.1733
UGUCUGUAUGGGAAUAACG | UQCRFS1P2 | -0.4753
UAGCGAAUAAUACAUUUCG | ZBTB8A | 0.3837
UGGGUGAUCAGCCUUCUCA | CGGBP1 | 0.4359
UCUCGAUCAUGGAUUAACC | VWA8 | 0.2926
UCCUUUCCAAACCUCAGCC | TSR3 | -0.4988

Some entries from above, unchanged:

{"sirna": "UCUCGAUCAUGGAUUAACC", "target gene": "VWA8", "seed-corrected z-score": "0.2926"}
{"sirna": "UAAUGUAAGGGAGUACAGC", "target gene": "PSMD10", "seed-corrected z-score": "-0.2963"}
{"sirna": "AGAUCUAUCAUGACGGCCC", "target gene": "TUBA8", "seed-corrected z-score": "-0.619"}
{"sirna": "UAAACAACUGUUCUGAGGC", "target gene": "ATG12", "seed-corrected z-score": "0.2607"}